# From PubChem BioAssay AID1439 (NMMLSC, 2008)
# Amino acid sequences for entries named in this document (tags omitted).
# UniProt P09471, whole entry, looked up: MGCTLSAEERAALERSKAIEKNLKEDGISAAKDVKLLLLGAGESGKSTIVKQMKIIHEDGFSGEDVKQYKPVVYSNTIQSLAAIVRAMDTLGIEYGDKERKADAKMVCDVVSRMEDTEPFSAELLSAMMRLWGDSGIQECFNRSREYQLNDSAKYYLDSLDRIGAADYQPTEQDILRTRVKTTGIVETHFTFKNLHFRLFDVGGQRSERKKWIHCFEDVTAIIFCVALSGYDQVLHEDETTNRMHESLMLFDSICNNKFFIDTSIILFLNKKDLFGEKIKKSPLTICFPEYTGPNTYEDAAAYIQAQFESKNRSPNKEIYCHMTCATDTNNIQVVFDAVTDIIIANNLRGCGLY
# In all, about 220,000 compounds went through this assay and about 770 (0.35%) were called active. The inconclusive results got no clear call from the source; some entries with a clear call stand among them for comparison. Cut-off read from the data, not from the text of the source: active = binding response below about 49% or above about 150%; inconclusive = no clear call, values can overlap the other calls; inactive = in between.
# Target: Guanine nucleotide-binding protein G(o) subunit alpha (Homo sapiens) (UniProt P09471)
# Test: RGS7-Galphao binding modulators, primary screen, biochemical, multiplexed bead flow cytometry (AID 1439);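 note: fluorescent Galphao held in activated GDP-AlF4 state binding bead-coupled RGS7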
# Settings: at 10 µM, actives lie on both sides
row,SMILES,binding response (% of control)
1,Cc1ccc2c(c1)C(=O)CC(O)(C(F)(F)F)O2 (stereo not given),inconclusive: 138%
2,C/C(=N/NC(=O)CN1CCN(Cc2ccccc2)CC1)c1ccc([N+](=O)[O-])cc1,inconclusive: 129%
3,O=C(Cn1cnc2c(cnn2-c2ccccc2)c1=O)Nc1ccc(S(=O)(=O)N2CCOCC2)cc1,inactive: 89.8%
4,COc1ccccc1NC(=O)Nc1cc(C(C)C)ccc1C,inconclusive: 104%
5,COc1cccc(-c2cc(-c3cccnc3)nc(N)c2C#N)c1,inconclusive: 123%
6,O=C(O)c1ccc(-c2ccc(/C=C3\NC(=O)N(Cc4ccc(Cl)cc4)C3=O)o2)cc1,inconclusive: 730%
7,CCC(=O)Nc1ccc(/C=C(\C(C)=O)C(=O)c2ccccc2)cc1,inconclusive: 93.9%
8,CCOC(=O)C1(Cc2cccc(OC)c2)CCN(CC2CC=CCC2)CC1 (stereo not given),inactive: 99.2%
9,CSc1nnc([C@H](Cc2c[nH]c3ccccc23)NC(=O)OC(C)(C)C)o1,inconclusive: 96.8%
10,COc1ccc(C2=NN(C(=O)CCCC(=O)O)C(c3cn(-c4ccccc4)nc3-c3ccccc3)C2)cc1 (stereo not given),inconclusive: 104%
11,O=C(/C=C/c1ccccc1)Nc1cc(C(=O)O)cc(C(=O)O)c1,inconclusive: 102%
12,CC(C)(C)NC(=O)c1cccc2c1C(=O)c1ccccc1-2,inconclusive: 86.9%
13,Cc1c(NC(=O)c2cccc(NS(C)(=O)=O)c2)c(=O)n(-c2ccccc2)n1C,inconclusive: 146%
14,CCCN1C(=O)CC(Sc2ncccc2C(=O)O)C1=O (stereo not given),inconclusive: 107%
15,O=c1oc2ccccc2cc1-c1nc2c(s1)CCCC2,inactive: 104%
16,CCC(C)NC(=O)c1cccc(C)c1 (stereo not given),inconclusive: 85.6%
17,CCCc1nnc(NC(=O)CCC(=O)N2CCN(S(=O)(=O)c3ccc(F)cc3)CC2)s1,inconclusive: 64.2%
18,Cc1ccc(Cl)c2c1=NC(=O)C=2c1[nH]c(=S)[nH]c1O,inconclusive: 104%
19,CC1(C)CC(=O)C(Sc2ccccc2[N+](=O)[O-])=C(O)C1,inactive: 100%
20,C=C1C(C(=O)Nc2cccc(OC)c2)C1C(=O)Nc1cccc(OC)c1 (stereo not given),inconclusive: 87.3%
21,CC1CCCCC1NC(=O)C1CCC(CNc2c(N3CCCCC3)c(=O)c2=O)CC1 (stereo not given),inconclusive: 112%
22,Cc1ccc(NC(=S)N(CCN(C)C)C(C)c2ccco2)cc1Cl (stereo not given),inconclusive: 81.3%
23,CC(=O)Nc1ccc(NC(=O)CSc2nnc(-c3ccco3)o2)cc1,inactive: 104%

row,SMILES,binding response (% of control)
1,COc1cc([N+](=O)[O-])ccc1NC(=O)CSc1n[nH]c(C(C)C)n1,inactive: 94.9%
2,COc1cccc(NC(=O)NC2CCN(Cc3nnnn3Cc3ccc4c(c3)OCO4)CC2)c1,inconclusive: 131%
3,CC1CCC2(CC1)OCC1(CCC3(COC4(CCC(C)CC4)OC3)C1=O)CO2 (stereo not given),inactive: 103%
4,COc1cccc(/C=N/n2c(-c3cc(C)[nH]n3)n[nH]c2=S)c1,inconclusive: -51.8%
5,COc1ccc(CCNC(=O)C(Sc2ccccn2)c2ccccc2)cc1OC (stereo not given),inconclusive: 88.1%
6,CC(C)c1ccc(OCC(=O)N(Cc2ccccc2)c2ccccn2)cc1,inactive: 103%
7,COc1cc(CNCc2ccccc2C(F)(F)F)cc(OC)c1,inconclusive: 89.4%
8,Cc1ccc2oc(=O)n(CC(=O)OCCC(C)C)c2c1,inconclusive: 98%
9,CCOC(=O)c1cc(-c2ccccc2)sc1NC(=O)COC(=O)c1cccc(S(N)(=O)=O)c1,inconclusive: 150%
10,CC(C)Cn1c(N)c(C=O)c(=O)[nH]c1=O,inconclusive: 108%
11,C=CCSC1=NNC(c2ccc(C(C)(C)C)cc2)=NN1,inconclusive: 174%
12,CCc1ccc(OCC(=O)O/N=C(\N)c2ccccn2)cc1,inconclusive: 85.5%
13,CC1CCCC/C1=N\NC(=S)Nc1ccccc1 (stereo not given),inconclusive: 86.4%
14,COCCn1c(N)c(N(Cc2ccccc2)C(=O)c2cc3ccccc3o2)c(=O)[nH]c1=O,inconclusive: 131%
15,COc1ccc(C(CCN2CCN(c3ccccc3)CC2)c2c(O)cc(OC)cc2OC)cc1 (stereo not given),inconclusive: 156%
16,CN(Cc1ccccc1)S(=O)(=O)c1ccc2c(c1)n(C)c(=O)c(=O)n2C,inconclusive: 107%
17,CCOC(=O)c1cnc2ccc(C)cn2c1=O,inconclusive: 93%
18,CC1Cc2nc(SCC(N)=O)n(Cc3ccccc3)c(=O)c2S1 (stereo not given),inconclusive: 108%
19,CCc1ccc(Cc2cnc(NC(=O)C3=NCCN3)s2)cc1,inconclusive: 89.6%
20,CCC(C)[C@H](NC(=O)Nc1ccc(S(N)(=O)=O)cc1)C(=O)OC (stereo not given in full),inconclusive: 211%
21,Cc1cc(C(=O)N/N=C/c2ccccc2)c(C)o1,inconclusive: 107%
22,C/C(=N\Nc1cccc([N+](=O)[O-])c1)c1cc(F)ccc1O,inconclusive: 126%

# 2 records drawn at random from those above:
row,SMILES,binding response (% of control)
22,C/C(=N\Nc1cccc([N+](=O)[O-])c1)c1cc(F)ccc1O,inconclusive: 126%
5,COc1ccc(CCNC(=O)C(Sc2ccccn2)c2ccccc2)cc1OC (stereo not given),inconclusive: 88.1%
